## Results from one PubChem assay

Data taken from PubChem BioAssay AID504749, deposited by NCATS (2011).

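A panel of P. falciparum strains inside erythrocytes is exposed to compounds for three days, then a DNA-binding dye reports the amount of parasite DNA.
Each compound was titrated across a series from about 0.000037 to 29 µM.
The number is the fitted AC50, the concentration giving a half-maximal change in signal; a lower value means higher potency, whether the curve shows a decrease or an increase.
Calls follow the curve class and fit quality: every row here is inconclusive, covering signal-raising curves and weak, poorly fitted, partial or highest-dose-only inhibition curves.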

Values are in µM.
Every entry below has the call inconclusive.
Only part of the assay is shown, chiefly results filed as inconclusive.
Potencies fitted to partial, single-point or poorly fitting curves are rough.
The first word of each remark tells which way the curve ran; it can be opposite to the aim of the assay.

SMILES	setting	fitted potency (µM)	remark
C=C[C@@]1(C)C[C@H](OC(=O)CSC(C)(C)CNC(=O)[C@@H](N)C(C)C)[C@@]2(C)C(C)CC[C@@]3(CCC(=O)[C@@H]32)[C@H](C)[C@H]1O (stereo partly specified)	CP201	1.901	inhibitor, partial curve
C=C[C@@]1(C)C[C@H](OC(=O)CSC(C)(C)CNC(=O)[C@@H](N)C(C)C)[C@@]2(C)C(C)CC[C@@]3(CCC(=O)[C@@H]32)[C@H](C)[C@H]1O (stereo partly specified)	HB3	2.818	inhibitor, partial curve
C=C[C@@]1(C)C[C@H](OC(=O)CSC(C)(C)CNC(=O)[C@@H](N)C(C)C)[C@@]2(C)C(C)CC[C@@]3(CCC(=O)[C@@H]32)[C@H](C)[C@H]1O (stereo partly specified)	JCK	11.22	inhibitor, single point
C=C[C@@]1(C)C[C@H](OC(=O)CSC(C)(C)CNC(=O)[C@@H](N)C(C)C)[C@@]2(C)C(C)CC[C@@]3(CCC(=O)[C@@H]32)[C@H](C)[C@H]1O (stereo partly specified)	FAB9	11.22	inhibitor, single point
CCCC(=O)OC(C(Cl)(Cl)Cl)P(=O)(OC)OC (stereo unspecified)	P94_40	19.95	inhibitor, partial curve, poor fit
CCCC(=O)OC(C(Cl)(Cl)Cl)P(=O)(OC)OC (stereo unspecified)	3D7	3.162	inhibitor, partial curve, poor fit
CCCC(=O)OC(C(Cl)(Cl)Cl)P(=O)(OC)OC (stereo unspecified)	CP215	19.01	inhibitor, single point
CCCC(=O)OC(C(Cl)(Cl)Cl)P(=O)(OC)OC (stereo unspecified)	P93_24	3.981	inhibitor, single point
CCCC(=O)OC(C(Cl)(Cl)Cl)P(=O)(OC)OC (stereo unspecified)	CP211	0.0675	activator
CCCC(=O)OC(C(Cl)(Cl)Cl)P(=O)(OC)OC (stereo unspecified)	7G8	0.0141	activator, full curve, poor fit
CCCC(=O)OC(C(Cl)(Cl)Cl)P(=O)(OC)OC (stereo unspecified)	CP256	17.78	inhibitor, partial curve, poor fit
CCCC(=O)OC(C(Cl)(Cl)Cl)P(=O)(OC)OC (stereo unspecified)	CP325	0.0239	activator
CCCC(=O)OC(C(Cl)(Cl)Cl)P(=O)(OC)OC (stereo unspecified)	CP315	0.5358	inhibitor, full curve, poor fit
CCCC(=O)OC(C(Cl)(Cl)Cl)P(=O)(OC)OC (stereo unspecified)	W2	0.0043	inhibitor, full curve, poor fit
CCCC(=O)OC(C(Cl)(Cl)Cl)P(=O)(OC)OC (stereo unspecified)	ICS	0.0501	inhibitor, full curve, poor fit
CCCC(=O)OC(C(Cl)(Cl)Cl)P(=O)(OC)OC (stereo unspecified)	PC26	9.528	inhibitor, partial curve, poor fit
CCCC(=O)OC(C(Cl)(Cl)Cl)P(=O)(OC)OC (stereo unspecified)	ATS95	17.78	inhibitor, single point
CCCC(=O)OC(C(Cl)(Cl)Cl)P(=O)(OC)OC (stereo unspecified)	PC15	17.78	inhibitor, single point
CNC[C@H](O)c1ccc(O)c(O)c1	3D7	3.162	inhibitor, single point
CNC[C@H](O)c1ccc(O)c(O)c1	CP335	2.133	inhibitor, single point
CNC[C@H](O)c1ccc(O)c(O)c1	CP215	9.528	inhibitor, single point
NC1CCN(c2nc3c(cc2F)c(=O)c(C(=O)O)cn3-c2ccc(F)cc2F)C1 (stereo unspecified)	3D7	14.13	inhibitor, single point
NC1CCN(c2nc3c(cc2F)c(=O)c(C(=O)O)cn3-c2ccc(F)cc2F)C1 (stereo unspecified)	PC49	6.31	inhibitor, partial curve
NC1CCN(c2nc3c(cc2F)c(=O)c(C(=O)O)cn3-c2ccc(F)cc2F)C1 (stereo unspecified)	CP217	11.22	inhibitor, single point
NC1CCN(c2nc3c(cc2F)c(=O)c(C(=O)O)cn3-c2ccc(F)cc2F)C1 (stereo unspecified)	CP260	4.467	inhibitor, partial curve
NC1CCN(c2nc3c(cc2F)c(=O)c(C(=O)O)cn3-c2ccc(F)cc2F)C1 (stereo unspecified)	CP237	10	inhibitor, partial curve
NC1CCN(c2nc3c(cc2F)c(=O)c(C(=O)O)cn3-c2ccc(F)cc2F)C1 (stereo unspecified)	TAB113	17.78	inhibitor, single point
NC1CCN(c2nc3c(cc2F)c(=O)c(C(=O)O)cn3-c2ccc(F)cc2F)C1 (stereo unspecified)	CP297	19.01	inhibitor, single point
NC1CCN(c2nc3c(cc2F)c(=O)c(C(=O)O)cn3-c2ccc(F)cc2F)C1 (stereo unspecified)	CP194	10.69	inhibitor, partial curve
NC1CCN(c2nc3c(cc2F)c(=O)c(C(=O)O)cn3-c2ccc(F)cc2F)C1 (stereo unspecified)	CP291	4.776	inhibitor, partial curve
NC1CCN(c2nc3c(cc2F)c(=O)c(C(=O)O)cn3-c2ccc(F)cc2F)C1 (stereo unspecified)	CP256	5.623	inhibitor, partial curve, poor fit
NC1CCN(c2nc3c(cc2F)c(=O)c(C(=O)O)cn3-c2ccc(F)cc2F)C1 (stereo unspecified)	7G8	5.012	inhibitor, partial curve
NC1CCN(c2nc3c(cc2F)c(=O)c(C(=O)O)cn3-c2ccc(F)cc2F)C1 (stereo unspecified)	C2A	19.95	inhibitor, single point
NC1CCN(c2nc3c(cc2F)c(=O)c(C(=O)O)cn3-c2ccc(F)cc2F)C1 (stereo unspecified)	CP211	19.01	inhibitor, single point
NC1CCN(c2nc3c(cc2F)c(=O)c(C(=O)O)cn3-c2ccc(F)cc2F)C1 (stereo unspecified)	CP262	7.569	activator, partial curve
NC1CCN(c2nc3c(cc2F)c(=O)c(C(=O)O)cn3-c2ccc(F)cc2F)C1 (stereo unspecified)	CP238	10	inhibitor, partial curve
NC1CCN(c2nc3c(cc2F)c(=O)c(C(=O)O)cn3-c2ccc(F)cc2F)C1 (stereo unspecified)	CP203	15.1	inhibitor, partial curve, poor fit
NC1CCN(c2nc3c(cc2F)c(=O)c(C(=O)O)cn3-c2ccc(F)cc2F)C1 (stereo unspecified)	CP252	10	inhibitor, single point
NC1CCN(c2nc3c(cc2F)c(=O)c(C(=O)O)cn3-c2ccc(F)cc2F)C1 (stereo unspecified)	CP215	9.528	inhibitor, partial curve
NC1CCN(c2nc3c(cc2F)c(=O)c(C(=O)O)cn3-c2ccc(F)cc2F)C1 (stereo unspecified)	TAB165	6.31	inhibitor, partial curve
NC1CCN(c2nc3c(cc2F)c(=O)c(C(=O)O)cn3-c2ccc(F)cc2F)C1 (stereo unspecified)	DFO2036	7.943	inhibitor, partial curve
NC1CCN(c2nc3c(cc2F)c(=O)c(C(=O)O)cn3-c2ccc(F)cc2F)C1 (stereo unspecified)	CP325	15.1	inhibitor, single point

Once more, the final 3:

| SMILES | setting | fitted potency (µM) | remark |
|---|---|---|---|
| `NC1CCN(c2nc3c(cc2F)c(=O)c(C(=O)O)cn3-c2ccc(F)cc2F)C1` (stereo unspecified) | TAB165 | 6.31 | inhibitor, partial curve |
| `NC1CCN(c2nc3c(cc2F)c(=O)c(C(=O)O)cn3-c2ccc(F)cc2F)C1` (stereo unspecified) | DFO2036 | 7.943 | inhibitor, partial curve |
| `NC1CCN(c2nc3c(cc2F)c(=O)c(C(=O)O)cn3-c2ccc(F)cc2F)C1` (stereo unspecified) | CP325 | 15.1 | inhibitor, single point |